# Results: article PMC7819943, “Rice protein-binding microarrays: a tool to detect cis-acting elements near promoter regions in rice”
# The list shows a part of the results.
# Molecular target: T1, OsSMF1 (Oryza sativa, UniProt Q6ZLB0 1-436)
# T1 sequence: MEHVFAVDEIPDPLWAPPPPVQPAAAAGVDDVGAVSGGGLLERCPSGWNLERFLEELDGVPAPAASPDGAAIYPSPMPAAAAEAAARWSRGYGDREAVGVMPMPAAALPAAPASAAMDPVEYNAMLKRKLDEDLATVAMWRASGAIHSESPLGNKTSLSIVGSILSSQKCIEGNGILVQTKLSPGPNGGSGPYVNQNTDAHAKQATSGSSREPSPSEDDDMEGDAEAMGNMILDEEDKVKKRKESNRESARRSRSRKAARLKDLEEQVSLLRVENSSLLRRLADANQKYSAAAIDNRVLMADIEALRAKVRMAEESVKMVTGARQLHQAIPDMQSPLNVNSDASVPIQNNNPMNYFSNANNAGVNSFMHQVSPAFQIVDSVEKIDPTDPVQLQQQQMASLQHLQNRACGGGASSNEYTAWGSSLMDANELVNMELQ
# Assay: protein-binding microarray (RPBM); PBS, 2% BSA, 51.3 ng/ul salmon testes DNA, 50 uM zinc acetate, 200 nM TF, 25 C, 1 h; high values mean tight binding
# Details: protein: recombinant; tags: N-terminal polyhistidine and DsRed monomer fusion (pET32a); chain copies: 2; label: CyDye5-dUTP incorporated in the synthesized complementary strand; 3' TTTTT single-stranded linker to array surface; dsDNA, one strand shown
# Outline: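 Per-feature fluorescence intensity (arbitrary units), read on an Axon 4000B scanner, is the binding signal. Transcription factors carrying an N-terminal polyhistidine tag and DsRed fusion were expressed in E. coli BL21-CodonPlus and purified on Ni–NTA. A custom Agilent array, made double-stranded by primer extension with Cy5-dUTP and blocked with 2% BSA, was incubated with 200 nM protein in PBS, 2% BSA, salmon testes DNA and 50 µM zinc acetate at 25 °C for 1 h and then washed.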
row,Sequence,binding signal
1,GGATAAGGCCCAACGTGTGCTCCTCAACCTCCTCCTTCAACGGAGTCACCTAGTGCAG,3280 fluorescence intensity (a.u.)
2,TCGAAATCCACCGCGCGGGCACGGGGCACGAGACCAACCACGGAGTCACCTAGTGCAG,8530 fluorescence intensity (a.u.)
3,TCTCCTTACACTCTGACGCACAAACTCAGGGGATTCATCACGGAGTCACCTAGTGCAG,4050 fluorescence intensity (a.u.)
4,CCTGTAGGGAAAACGGCTTTCCTATACGGCGTGTATACGGCGGAGTCACCTAGTGCAG,3140 fluorescence intensity (a.u.)
5,CCCAACCTCGTATGTGCCACCTGTGGCAAGTCCTGCCGCTCGGAGTCACCTAGTGCAG,3590 fluorescence intensity (a.u.)
6,GGCCCACGCCCCACGTAACGTAGCGTACAGTGTACACCTGCGGAGTCACCTAGTGCAG,6940 fluorescence intensity (a.u.)
7,AGGCGCATCCACCCTTCTCGCTGAGACATTTCCATCGAGCCGGAGTCACCTAGTGCAG,3220 fluorescence intensity (a.u.)
8,CACCGCCGCTGCCACCGCACGCACGCCCGCCACTTCGCTGCGGAGTCACCTAGTGCAG,3160 fluorescence intensity (a.u.)
9,CGATGCAGCTGCACACGCCGCTGTTCTACGCCACCTGCGCCGGAGTCACCTAGTGCAG,3610 fluorescence intensity (a.u.)
10,ATGTTGGGCCCTACATGTCAGTCAGACAGTCACCTTGTTGCGGAGTCACCTAGTGCAG,5550 fluorescence intensity (a.u.)
11,CGTTACTGCCTGACGTCATCCACCTCTCCTGTTTCCGTTTCGGAGTCACCTAGTGCAG,24800 fluorescence intensity (a.u.)
12,GCACATCGCGCTCGCCGAAGCAGAACCACGCGGCCACCGGCGGAGTCACCTAGTGCAG,3240 fluorescence intensity (a.u.)
13,GGCCTATCACATTTGGAAGATTATGGCTAGTCATTACACACGGAGTCACCTAGTGCAG,3550 fluorescence intensity (a.u.)
14,AGCTGGCGTGATGTGTGTCTCATGCACACCCATAATGTGACGGAGTCACCTAGTGCAG,3470 fluorescence intensity (a.u.)
15,TCTTCTGTGATTTGCTCATTTCGTTCCCCAAACAGGGCGCCGGAGTCACCTAGTGCAG,3780 fluorescence intensity (a.u.)
16,CGCTGCCACGCCACTATAATCTCGGCCGCGCCGACGTCGCCGGAGTCACCTAGTGCAG,4220 fluorescence intensity (a.u.)
17,CCTCTGGTCACGCATTCTACACAGAATCTCTGGTTTTCCCCGGAGTCACCTAGTGCAG,3180 fluorescence intensity (a.u.)
18,CAAATTTGGTGGCCCAGTCATTGCAATCATGATGAGAGTCCGGAGTCACCTAGTGCAG,4420 fluorescence intensity (a.u.)
19,AAAATTTATTCATCCATCGTCATAATTTTAATTATATGCACGGAGTCACCTAGTGCAG,4150 fluorescence intensity (a.u.)
20,ATTCGGTCATTTCGCCGCCACCACCGCCGCCGCCGTCGTGCGGAGTCACCTAGTGCAG,3290 fluorescence intensity (a.u.)
21,AGGGCGCTTTTGGCTGACATGGCGCCTACGTGGCTTGTTTCGGAGTCACCTAGTGCAG,28100 fluorescence intensity (a.u.)

row,Sequence,binding signal
1,GCAAGCCACATTATGATGAAGTGTGGATTTGCCAAGTCAGCGGAGTCACCTAGTGCAG,5130 fluorescence intensity (a.u.)
2,CTTGCTCCACGTCGGAACTTCCAAGGTACTTTCTCCGTTTCGGAGTCACCTAGTGCAG,6870 fluorescence intensity (a.u.)
3,CCACCATATCTCCTTACACGTCGTCCAGCCGGTGCGATACCGGAGTCACCTAGTGCAG,3640 fluorescence intensity (a.u.)
4,CAATGCTGGACTTATCGGGTAACGCGCTTACCGGCACTCTCGGAGTCACCTAGTGCAG,19200 fluorescence intensity (a.u.)
5,ACATTTTAATACGATTGTTGCCGTGACTTTGTAACCCCAACGGAGTCACCTAGTGCAG,25600 fluorescence intensity (a.u.)
6,CACATGGGTTGCGCGCCTACACACGTCGATCCAGGACAAGCGGAGTCACCTAGTGCAG,4540 fluorescence intensity (a.u.)
7,GTTATTATATGAGAGAAAATATAATGATGTTAGCCGCGTACGGAGTCACCTAGTGCAG,3470 fluorescence intensity (a.u.)
8,TACTACTCTCCTTTCTTTACGTGGTAGCTGGGCTGGGCTGCGGAGTCACCTAGTGCAG,3450 fluorescence intensity (a.u.)
9,AATGCCCACGCCACGACCGTCGCCCCTCTCCATGTCAGTCCGGAGTCACCTAGTGCAG,5310 fluorescence intensity (a.u.)
10,GTTTTGCGTGCGTGGAGTATTTGTTGAGCCTTGCTACCATCGGAGTCACCTAGTGCAG,5550 fluorescence intensity (a.u.)
11,TATTGACTATTTTATTATTTGATGTCATTTAAGGTTCTAACGGAGTCACCTAGTGCAG,3180 fluorescence intensity (a.u.)
12,AGCAGTCTAGCACTGTCCACGCGGGCCCCACGCCGCTCTCCGGAGTCACCTAGTGCAG,4610 fluorescence intensity (a.u.)
13,GATAACCGTAACTAACCGGCTTGGTCAGCAAGCCAAAGTGCGGAGTCACCTAGTGCAG,6310 fluorescence intensity (a.u.)
14,AAATGATGTTGATACTTGATTGGTGATATGGCACTAGTGTCGGAGTCACCTAGTGCAG,3860 fluorescence intensity (a.u.)
15,TCTCTCCTATAGTGGTCATCAATTGTTTGTTTTGAGTAAACGGAGTCACCTAGTGCAG,3590 fluorescence intensity (a.u.)
16,CACGTACTAACTGGCGGGGTTGTGTCATCTTGTCTATGGTCGGAGTCACCTAGTGCAG,4850 fluorescence intensity (a.u.)
17,GACGGTGGCGGCGGGGCCTTGTCTCACCTCCCCTTTGCGCCGGAGTCACCTAGTGCAG,27500 fluorescence intensity (a.u.)
18,CGAGGGCCGCGGTGGCCACGGTGGCCGCCGCGCTGCTCGGCGGAGTCACCTAGTGCAG,4970 fluorescence intensity (a.u.)
19,AGCCAATACGGTACACGTGGCATGACCATCACCCTGCCTCCGGAGTCACCTAGTGCAG,26500 fluorescence intensity (a.u.)
20,TATGCAGATATGCACGTCAGCTATCGCGGTTGTCTTTCTACGGAGTCACCTAGTGCAG,6230 fluorescence intensity (a.u.)
21,CTTTGCGGTGGCTGCCTTGCTCCGCGTCGAGAAGTACCCACGGAGTCACCTAGTGCAG,3440 fluorescence intensity (a.u.)

# For convenience, some entries already given.
row,Sequence,binding signal
10,ATGTTGGGCCCTACATGTCAGTCAGACAGTCACCTTGTTGCGGAGTCACCTAGTGCAG,5550 fluorescence intensity (a.u.)
11,CGTTACTGCCTGACGTCATCCACCTCTCCTGTTTCCGTTTCGGAGTCACCTAGTGCAG,24800 fluorescence intensity (a.u.)
12,GCACATCGCGCTCGCCGAAGCAGAACCACGCGGCCACCGGCGGAGTCACCTAGTGCAG,3240 fluorescence intensity (a.u.)
